Test results published in the supplement of paper PMC10849652.
The list shows a part of the results.

Chains of the proteins cited; added tags and fusions are not shown. Lines headed by an entry give the natural chain unless they say otherwise; changes in a name come on top.
UniProt O95721: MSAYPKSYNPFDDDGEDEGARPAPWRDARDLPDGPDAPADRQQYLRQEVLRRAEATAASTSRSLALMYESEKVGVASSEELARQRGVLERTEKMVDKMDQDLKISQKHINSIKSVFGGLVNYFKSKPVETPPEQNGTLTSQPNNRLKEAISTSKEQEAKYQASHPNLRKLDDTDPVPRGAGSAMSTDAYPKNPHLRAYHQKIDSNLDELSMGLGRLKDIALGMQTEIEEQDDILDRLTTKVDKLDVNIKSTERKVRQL
UniProt Q9Y5W9: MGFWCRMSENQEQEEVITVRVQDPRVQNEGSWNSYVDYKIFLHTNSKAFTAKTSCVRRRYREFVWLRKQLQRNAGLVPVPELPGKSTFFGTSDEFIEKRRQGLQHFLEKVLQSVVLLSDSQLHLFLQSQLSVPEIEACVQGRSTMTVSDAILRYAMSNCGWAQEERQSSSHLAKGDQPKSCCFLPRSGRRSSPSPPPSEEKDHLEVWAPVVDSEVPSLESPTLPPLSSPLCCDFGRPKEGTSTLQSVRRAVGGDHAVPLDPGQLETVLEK
UniProt O60906: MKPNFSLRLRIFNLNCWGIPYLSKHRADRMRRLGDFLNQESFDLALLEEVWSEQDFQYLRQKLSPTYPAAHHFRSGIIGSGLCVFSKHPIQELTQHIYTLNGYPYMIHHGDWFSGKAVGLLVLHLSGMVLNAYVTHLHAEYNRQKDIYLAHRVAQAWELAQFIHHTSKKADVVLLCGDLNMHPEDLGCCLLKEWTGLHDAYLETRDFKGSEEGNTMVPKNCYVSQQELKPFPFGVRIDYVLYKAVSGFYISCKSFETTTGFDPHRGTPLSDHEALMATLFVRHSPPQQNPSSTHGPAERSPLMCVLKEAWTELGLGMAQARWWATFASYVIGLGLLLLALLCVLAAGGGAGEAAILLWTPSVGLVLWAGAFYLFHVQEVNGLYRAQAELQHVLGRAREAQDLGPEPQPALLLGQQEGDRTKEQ
UniProt O75391: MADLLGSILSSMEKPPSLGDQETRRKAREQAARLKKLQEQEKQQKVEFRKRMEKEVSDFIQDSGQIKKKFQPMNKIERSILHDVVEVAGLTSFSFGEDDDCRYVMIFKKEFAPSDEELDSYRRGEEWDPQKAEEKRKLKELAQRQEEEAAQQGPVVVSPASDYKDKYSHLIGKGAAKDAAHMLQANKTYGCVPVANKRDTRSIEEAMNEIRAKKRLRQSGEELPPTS
UniProt Q9Y5X2: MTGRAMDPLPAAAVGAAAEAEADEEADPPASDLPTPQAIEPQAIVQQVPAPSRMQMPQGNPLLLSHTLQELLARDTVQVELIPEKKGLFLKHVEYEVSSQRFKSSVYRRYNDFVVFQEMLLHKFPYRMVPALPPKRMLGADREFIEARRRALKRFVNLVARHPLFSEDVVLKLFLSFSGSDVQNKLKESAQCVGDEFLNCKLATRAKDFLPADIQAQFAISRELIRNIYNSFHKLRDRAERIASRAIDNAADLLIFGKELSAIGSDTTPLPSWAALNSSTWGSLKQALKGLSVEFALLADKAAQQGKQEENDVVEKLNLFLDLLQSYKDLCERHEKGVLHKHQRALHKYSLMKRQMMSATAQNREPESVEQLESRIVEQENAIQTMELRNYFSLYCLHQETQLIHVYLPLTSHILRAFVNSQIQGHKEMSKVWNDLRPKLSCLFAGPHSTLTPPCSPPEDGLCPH
UniProt Q9NTJ3, whole entry, looked up: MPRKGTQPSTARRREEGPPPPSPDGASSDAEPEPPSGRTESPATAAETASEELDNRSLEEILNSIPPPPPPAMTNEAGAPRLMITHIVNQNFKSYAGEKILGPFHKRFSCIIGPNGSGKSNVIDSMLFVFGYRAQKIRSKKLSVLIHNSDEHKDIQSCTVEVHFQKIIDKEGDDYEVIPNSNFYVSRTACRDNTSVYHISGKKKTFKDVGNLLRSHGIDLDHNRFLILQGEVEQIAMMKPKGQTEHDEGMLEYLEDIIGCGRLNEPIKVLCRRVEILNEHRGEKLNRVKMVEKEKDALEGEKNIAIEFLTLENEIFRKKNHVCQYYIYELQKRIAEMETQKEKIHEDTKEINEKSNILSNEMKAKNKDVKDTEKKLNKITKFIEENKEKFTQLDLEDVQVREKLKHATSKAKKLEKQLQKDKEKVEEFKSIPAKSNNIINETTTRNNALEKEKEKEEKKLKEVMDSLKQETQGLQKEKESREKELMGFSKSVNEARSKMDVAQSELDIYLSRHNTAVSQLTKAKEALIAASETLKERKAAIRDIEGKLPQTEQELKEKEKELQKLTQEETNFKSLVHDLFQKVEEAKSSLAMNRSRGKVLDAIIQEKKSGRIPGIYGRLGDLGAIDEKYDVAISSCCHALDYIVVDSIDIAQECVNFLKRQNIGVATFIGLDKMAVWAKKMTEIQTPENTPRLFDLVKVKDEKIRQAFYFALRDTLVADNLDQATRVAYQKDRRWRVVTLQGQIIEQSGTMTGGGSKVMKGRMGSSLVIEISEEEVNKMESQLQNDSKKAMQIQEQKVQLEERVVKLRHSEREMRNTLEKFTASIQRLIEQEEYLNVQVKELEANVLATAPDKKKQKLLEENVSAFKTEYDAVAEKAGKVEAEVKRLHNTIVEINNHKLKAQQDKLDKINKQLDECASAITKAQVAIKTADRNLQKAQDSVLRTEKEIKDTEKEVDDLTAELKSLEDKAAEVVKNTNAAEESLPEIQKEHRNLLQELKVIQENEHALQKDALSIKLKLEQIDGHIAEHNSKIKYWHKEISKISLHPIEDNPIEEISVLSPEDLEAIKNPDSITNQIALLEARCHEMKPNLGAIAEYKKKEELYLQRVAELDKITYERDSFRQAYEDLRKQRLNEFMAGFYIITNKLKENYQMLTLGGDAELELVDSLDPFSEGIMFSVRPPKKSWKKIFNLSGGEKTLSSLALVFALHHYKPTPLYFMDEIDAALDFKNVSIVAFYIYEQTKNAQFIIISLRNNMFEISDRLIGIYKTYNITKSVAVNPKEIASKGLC
UniProt P09661: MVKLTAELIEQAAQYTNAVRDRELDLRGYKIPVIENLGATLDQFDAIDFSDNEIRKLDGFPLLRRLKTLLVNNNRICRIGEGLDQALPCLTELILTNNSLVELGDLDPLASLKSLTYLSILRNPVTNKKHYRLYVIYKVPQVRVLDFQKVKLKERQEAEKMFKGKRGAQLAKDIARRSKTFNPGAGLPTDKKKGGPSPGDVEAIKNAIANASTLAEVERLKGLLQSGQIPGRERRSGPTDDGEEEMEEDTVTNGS
UniProt Q7KZF4: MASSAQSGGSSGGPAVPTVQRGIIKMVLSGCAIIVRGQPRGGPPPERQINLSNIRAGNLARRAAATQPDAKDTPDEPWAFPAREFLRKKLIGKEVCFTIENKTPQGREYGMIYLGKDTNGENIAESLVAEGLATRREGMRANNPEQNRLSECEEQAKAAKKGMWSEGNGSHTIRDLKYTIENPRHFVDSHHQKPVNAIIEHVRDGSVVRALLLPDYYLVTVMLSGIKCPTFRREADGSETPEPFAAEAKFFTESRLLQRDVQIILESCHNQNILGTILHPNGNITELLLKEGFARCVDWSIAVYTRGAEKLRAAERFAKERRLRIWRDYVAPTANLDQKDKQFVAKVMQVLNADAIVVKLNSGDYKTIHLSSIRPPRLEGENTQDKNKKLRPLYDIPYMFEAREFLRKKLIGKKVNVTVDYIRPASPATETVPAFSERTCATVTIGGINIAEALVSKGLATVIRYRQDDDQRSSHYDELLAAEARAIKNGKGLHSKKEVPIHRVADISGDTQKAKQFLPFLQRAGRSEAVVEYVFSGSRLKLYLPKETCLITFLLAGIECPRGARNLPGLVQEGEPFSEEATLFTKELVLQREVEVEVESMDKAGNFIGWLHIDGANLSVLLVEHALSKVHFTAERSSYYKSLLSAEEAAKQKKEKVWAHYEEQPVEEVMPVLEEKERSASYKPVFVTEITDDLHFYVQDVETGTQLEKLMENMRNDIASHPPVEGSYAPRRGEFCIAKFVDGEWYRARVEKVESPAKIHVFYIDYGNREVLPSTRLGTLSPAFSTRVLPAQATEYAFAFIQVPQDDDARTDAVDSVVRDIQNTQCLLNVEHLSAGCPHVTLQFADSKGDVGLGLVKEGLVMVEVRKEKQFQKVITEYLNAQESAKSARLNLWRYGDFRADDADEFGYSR
UniProt P04179: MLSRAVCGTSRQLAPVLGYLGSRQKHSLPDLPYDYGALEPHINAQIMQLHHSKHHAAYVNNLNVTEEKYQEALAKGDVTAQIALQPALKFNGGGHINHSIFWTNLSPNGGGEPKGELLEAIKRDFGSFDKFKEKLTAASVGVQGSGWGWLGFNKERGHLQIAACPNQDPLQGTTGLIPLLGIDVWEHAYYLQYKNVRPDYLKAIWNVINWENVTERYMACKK
UniProt Q96KF7: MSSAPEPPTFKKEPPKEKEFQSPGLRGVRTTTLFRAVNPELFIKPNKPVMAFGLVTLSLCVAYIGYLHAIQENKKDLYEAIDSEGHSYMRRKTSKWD
UniProt P08621, whole entry, looked up: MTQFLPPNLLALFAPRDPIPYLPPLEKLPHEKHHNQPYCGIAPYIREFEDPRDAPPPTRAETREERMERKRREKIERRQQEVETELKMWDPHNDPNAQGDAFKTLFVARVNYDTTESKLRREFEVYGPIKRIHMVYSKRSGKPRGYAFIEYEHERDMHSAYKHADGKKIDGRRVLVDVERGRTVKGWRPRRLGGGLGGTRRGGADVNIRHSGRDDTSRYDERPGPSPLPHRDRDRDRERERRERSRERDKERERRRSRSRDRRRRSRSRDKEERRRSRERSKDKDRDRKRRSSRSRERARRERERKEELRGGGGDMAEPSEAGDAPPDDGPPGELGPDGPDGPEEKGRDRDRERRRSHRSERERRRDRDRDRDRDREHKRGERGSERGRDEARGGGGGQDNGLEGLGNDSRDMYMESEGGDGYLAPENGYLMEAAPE
UniProt Q99717: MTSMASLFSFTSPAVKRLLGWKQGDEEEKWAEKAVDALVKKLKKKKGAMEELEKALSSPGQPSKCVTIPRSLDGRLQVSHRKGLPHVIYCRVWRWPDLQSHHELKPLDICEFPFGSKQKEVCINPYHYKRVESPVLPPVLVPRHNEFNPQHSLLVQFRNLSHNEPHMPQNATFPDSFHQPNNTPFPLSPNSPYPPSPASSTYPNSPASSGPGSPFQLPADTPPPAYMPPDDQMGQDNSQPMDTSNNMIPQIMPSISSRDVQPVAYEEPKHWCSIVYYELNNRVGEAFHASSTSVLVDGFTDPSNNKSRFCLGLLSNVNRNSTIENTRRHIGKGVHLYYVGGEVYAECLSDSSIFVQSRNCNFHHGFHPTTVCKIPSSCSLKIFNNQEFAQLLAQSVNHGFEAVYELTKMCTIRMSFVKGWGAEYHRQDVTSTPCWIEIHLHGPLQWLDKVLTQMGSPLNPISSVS
UniProt O14745: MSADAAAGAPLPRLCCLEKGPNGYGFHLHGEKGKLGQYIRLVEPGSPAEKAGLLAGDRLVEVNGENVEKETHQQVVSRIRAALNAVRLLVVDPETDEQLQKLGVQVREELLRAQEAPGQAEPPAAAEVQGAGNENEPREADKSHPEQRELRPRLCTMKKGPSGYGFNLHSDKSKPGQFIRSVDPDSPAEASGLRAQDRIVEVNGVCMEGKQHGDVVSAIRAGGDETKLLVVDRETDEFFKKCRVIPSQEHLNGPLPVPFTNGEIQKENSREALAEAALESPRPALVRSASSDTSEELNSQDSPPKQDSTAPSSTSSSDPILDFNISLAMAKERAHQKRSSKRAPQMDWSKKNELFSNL
UniProt Q9H0W8: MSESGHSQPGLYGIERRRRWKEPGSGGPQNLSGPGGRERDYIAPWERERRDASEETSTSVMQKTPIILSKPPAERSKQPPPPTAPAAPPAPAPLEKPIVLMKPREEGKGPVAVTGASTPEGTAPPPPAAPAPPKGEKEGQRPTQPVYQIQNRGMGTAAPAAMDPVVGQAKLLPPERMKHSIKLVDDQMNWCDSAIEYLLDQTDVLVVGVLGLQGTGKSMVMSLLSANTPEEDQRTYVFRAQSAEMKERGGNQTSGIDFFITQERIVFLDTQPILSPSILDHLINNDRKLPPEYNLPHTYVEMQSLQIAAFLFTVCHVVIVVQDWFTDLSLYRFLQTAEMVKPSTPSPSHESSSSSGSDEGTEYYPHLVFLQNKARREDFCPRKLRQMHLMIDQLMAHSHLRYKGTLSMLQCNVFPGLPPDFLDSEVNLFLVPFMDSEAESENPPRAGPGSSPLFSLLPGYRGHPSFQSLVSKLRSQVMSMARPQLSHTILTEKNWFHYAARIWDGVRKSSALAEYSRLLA

Key:
Test in all cases: log2 fold change, soluble protein after heating vs DMSO (PISA); higher = thermal stabilisation; K562 cells, 10 uM, 30 min; active = over 0.2 and 3.5 SD of the protein, either way, in both replicates (recomputed)
[1] = compound: CS(=O)(=O)c1ccc(-c2cnc(N)c(C(=O)Nc3ccccc3)n2)cc1
Summary of the method: (§1)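 K562 cells at 2×10^6 cells/mL were treated for 30 min with 10 μM compound, and aliquots were heated for 3 min over 48°C-58°C before pooling. Extraction used PBS with 0.5% NP-40 at 4°C, and soluble protein was the supernatant after 21,000xg for 90 min, measured by TMTpro 16plex LC-MS/MS with channel sums equalised. Thermal stability values, relative to control samples and from duplicates, are log2 fold changes.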

[2] = compound: C[C@@H](Oc1cc(-c2cnn(C3CCNCC3)c2)cnc1N)c1c(Cl)ccc(F)c1Cl [crizotinib]
Summary of the method: as §1

[3] = compound: C[C@@H]1COCCN1C2=NC(=NC(=C2)C3(CC3)S(=O)(=O)C)C4=C5C=CNC5=CC=C4
Summary of the method: as §1

[4] = compound: C[C@H](C1=CC=C(C=C1)C(=O)NC2=C3C=CNC3=NC=C2)N
Summary of the method: as §1

[5] = compound: C[C@H](Nc1ncnc2nc[nH]c12)c1cc2cccc(Cl)c2c(=O)n1-c1ccccc1 [duvelisib]
Summary of the method: as §1

[6] = compound: Cc1cc(Nc2cc(CN3CCOCC3)c3nc(C)c(Cc4ccc(Cl)cc4F)n3n2)n[nH]1 [gandotinib]
Summary of the method: as §1

[7] = compound: Cc1cc(Nc2cc(N3CCN(C)CC3)nc(Sc3ccc(NC(=O)C4CC4)cc3)n2)n[nH]1 [tozasertib]
Summary of the method: as §1

[8] = compound: Cc1cc(SCc2sc(-c3ccc(C(F)(F)F)cc3)nc2C)ccc1OCC(=O)O
Summary of the method: as §1

[9] = compound: Cc1ccc(-n2nc(C(C)(C)C)cc2NC(=O)Nc2ccc(OCCN3CCOCC3)c3ccccc23)cc1 [doramapimod]
Summary of the method: as §1

[10] = compound: Cc1ccc(C(=O)N(CCCN)[C@@H](c2nc3cc(Cl)ccc3c(=O)n2Cc2ccccc2)C(C)C)cc1 [ispinesib]
Summary of the method: as §1

[11] = compound: Cc1ccc(NC(=O)c2ccc(CN3CC[C@H](N(C)C)C3)c(C(F)(F)F)c2)cc1Nc1nccc(-c2cncnc2)n1 [bafetinib]
Summary of the method: as §1

[12] = compound: Cc1cccc(CC(=O)N2CCc3c2ccc(-c2cn(C)c4ncnc(N)c24)c3F)n1
Summary of the method: as §1

[13] = compound: Cc1cn(-c2cc(NC(=O)c3ccc(C)c(Nc4nccc(-c5cccnc5)n4)c3)cc(C(F)(F)F)c2)cn1 [nilotinib]
Summary of the method: as §1

[14] = compound: Cc1nc(Nc2n[nH]c3c2CN(C(=O)N[C@H](CN(C)C)c2ccccc2)C3(C)C)c2sccc2n1
Summary of the method: as §1

[15] = compound: Cc1nc(Nc2ncc(C(=O)Nc3c(C)cccc3Cl)s2)cc(N2CCN(CCO)CC2)n1 [dasatinib]
Summary of the method: as §1

[16] = compound: Cc1ncc(-c2ccnc(Nc3ccc(S(C)(=O)=O)cc3)n2)n1C(C)C
Summary of the method: as §1

[17] = compound: Cn1cc(-c2ccc3c(c2)CCN3C(=O)Cc2cccc(C(F)(F)F)c2)c2c(N)ncnc21
Summary of the method: as §1

[18] = compound: Cn1cc(-c2ccc3nnc(C(F)(F)c4ccc5ncccc5c4)n3n2)cn1
Summary of the method: as §1

[19] = compound: Cn1cncc1[C@@](N)(c1ccc(Cl)cc1)c1ccc2c(c1)c(-c1cccc(Cl)c1)cc(=O)n2C [tipifarnib]
Summary of the method: as §1

[20] = compound: FC(F)(F)c1ccc(/C=C/c2nc(COc3ccc(CCCCn4ccnn4)cc3)co2)cc1 [mubritinib]
Summary of the method: as §1

Target | log2 fold change [1] | log2 fold change [2] | log2 fold change [3] | log2 fold change [4] | log2 fold change [5] | log2 fold change [6] | log2 fold change [7] | log2 fold change [8] | log2 fold change [9] | log2 fold change [10] | log2 fold change [11] | log2 fold change [12] | log2 fold change [13] | log2 fold change [14] | log2 fold change [15] | log2 fold change [16] | log2 fold change [17] | log2 fold change [18] | log2 fold change [19] | log2 fold change [20]
SNAP29 (UniProt O95721) | inactive: -0.046 | inactive: -0.024 | inactive: -0.012 | inactive: 0 | inactive: 0.022 | inactive: -0.008 | inactive: -0.022 | inactive: -0.042 | inactive: -0.011 | inactive: -0.024 | inactive: -0.053 | inactive: -0.059 | inactive: 0.014 | inactive: 0.002 | inactive: 0.01 | inactive: -0.015 | inactive: 0.002 | inactive: -0.007 | inactive: 0.022 | inactive: 0.019
SNX11 (UniProt Q9Y5W9) | inactive: -0.062 | active: -0.76 | inactive: -0.021 | inactive: 0.012 | active: -0.486 | inactive: -0.378 | – | inactive: 0.14 | inactive: -0.017 | active: -0.536 | inactive: -0.259 | inactive: 0.081 | inactive: -0.033 | inactive: -0.108 | inactive: -0.022 | active: -0.44 | inactive: 0.077 | inactive: 0.002 | inactive: 0.178 | inactive: -0.015
SMIM26, A0A096LP01 | inactive: -0.057 | inactive: -0.075 | inactive: -0.044 | inactive: 0.022 | inactive: 0.007 | inactive: -0.059 | inactive: 0.029 | inactive: -0.002 | inactive: -0.017 | inactive: -0.11 | inactive: -0.045 | inactive: 0.107 | inactive: 0.036 | inactive: 0.022 | inactive: 0.017 | inactive: -0.015 | inactive: 0.015 | inactive: 0.022 | inactive: -0.074 | inactive: 0.008
SMCR8 (UniProt Q8TEV9) | inactive: -0.024 | inactive: -0.007 | inactive: -0.033 | inactive: -0.027 | inactive: -0.084 | inactive: 0.02 | inactive: -0.215 | inactive: 0.058 | inactive: 0.013 | – | inactive: 0.044 | inactive: 0.009 | inactive: -0.006 | inactive: 0 | inactive: -0.068 | inactive: -0.021 | inactive: 0.01 | – | inactive: 0.04 | inactive: 0.01
SMPD2 (UniProt O60906) | inactive: 0.004 | inactive: -0.063 | inactive: -0.101 | inactive: -0.088 | inactive: 0.139 | inactive: -0.04 | inactive: -0.094 | inactive: -0.03 | inactive: 0.03 | inactive: -0.115 | inactive: -0.095 | inactive: 0.024 | inactive: 0.031 | inactive: -0.087 | inactive: -0.071 | inactive: -0.109 | inactive: 0.024 | inactive: 0.04 | inactive: -0.128 | inactive: 0.05
SPAG7 (UniProt O75391) | inactive: 0.048 | inactive: 0.037 | inactive: -0.015 | inactive: -0.028 | inactive: 0.035 | inactive: 0.044 | inactive: 0.021 | inactive: 0.032 | inactive: 0.007 | inactive: 0.019 | inactive: -0.031 | inactive: -0.048 | inactive: 0.01 | inactive: -0.008 | inactive: 0.004 | inactive: -0.003 | inactive: -0.009 | inactive: 0.025 | inactive: 0.035 | inactive: 0.035
SNX8 (UniProt Q9Y5X2) | inactive: -0.019 | inactive: -0.014 | inactive: 0.048 | inactive: -0.172 | inactive: -0.001 | inactive: -0.011 | inactive: -0.014 | inactive: -0.013 | inactive: -0.002 | inactive: -0.051 | inactive: -0.072 | inactive: -0.019 | inactive: 0.004 | inactive: 0.037 | inactive: -0.052 | inactive: -0.052 | inactive: 0.001 | inactive: 0.016 | inactive: 0.069 | inactive: 0.023
SMC4 (UniProt Q9NTJ3) | inactive: 0.054 | inactive: -0.04 | inactive: -0.015 | inactive: 0.042 | inactive: -0.013 | inactive: -0.07 | inactive: 0.045 | inactive: 0.075 | inactive: -0.035 | inactive: -0.002 | inactive: 0.012 | inactive: 0.008 | inactive: -0.054 | inactive: -0.045 | inactive: -0.101 | inactive: 0.065 | inactive: -0.017 | inactive: 0.011 | inactive: -0.053 | inactive: -0.018
SNRPA1 (UniProt P09661) | inactive: -0.087 | inactive: -0.015 | inactive: -0.037 | inactive: -0.014 | inactive: -0.006 | inactive: -0.013 | inactive: -0.013 | inactive: -0.103 | inactive: 0.008 | inactive: 0.103 | inactive: 0.046 | inactive: -0.054 | inactive: 0.009 | inactive: 0.087 | inactive: 0.082 | inactive: 0.111 | inactive: -0.04 | inactive: -0.03 | inactive: 0.019 | inactive: 0.003
SND1 (UniProt Q7KZF4) | inactive: 0.107 | inactive: -0.101 | inactive: -0.674 | inactive: 0.713 | inactive: -0.197 | inactive: 0.319 | inactive: -0.003 | inactive: 0.109 | inactive: 0.391 | inactive: -0.478 | inactive: 0.224 | inactive: 0 | inactive: -0.04 | inactive: -0.096 | inactive: 0.083 | inactive: 0.047 | inactive: -0.334 | inactive: -0.355 | inactive: 0.088 | inactive: -0.237
SOD2 (UniProt P04179) | inactive: 0.009 | inactive: 0.033 | inactive: 0.112 | inactive: -0.07 | inactive: 0.032 | inactive: 0.016 | inactive: -0.002 | inactive: -0.069 | inactive: -0.126 | inactive: 0.061 | inactive: -0.041 | inactive: -0.011 | inactive: 0.051 | inactive: -0.004 | inactive: 0.063 | inactive: -0.007 | inactive: 0.038 | inactive: 0.026 | inactive: 0.058 | inactive: 0.004
SMIM8 (UniProt Q96KF7) | inactive: 0.162 | inactive: 0.116 | inactive: 0.167 | inactive: 0.008 | inactive: 0.027 | inactive: -0.109 | inactive: 0.004 | inactive: -0.035 | inactive: -0.054 | inactive: 0.034 | inactive: -0.009 | inactive: -0.088 | inactive: 0.019 | inactive: 0.002 | inactive: -0.043 | inactive: -0.07 | inactive: 0.004 | inactive: 0.004 | inactive: -0.02 | inactive: 0.007
SNRNP70 (UniProt P08621) | inactive: -0.062 | inactive: -0.057 | inactive: -0.172 | inactive: 0.204 | inactive: -0.048 | inactive: 0.073 | inactive: -0.061 | inactive: 0.026 | inactive: 0.139 | inactive: 0.103 | inactive: 0.132 | inactive: -0.066 | inactive: 0.05 | inactive: -0.256 | inactive: 0.174 | inactive: 0.259 | inactive: -0.215 | inactive: -0.198 | inactive: 0.083 | inactive: -0.114
SMAD5 (UniProt Q99717) | inactive: -0.052 | inactive: -0.034 | inactive: -0.039 | inactive: 0.056 | inactive: -0.028 | inactive: -0.113 | inactive: -0.031 | inactive: 0.126 | inactive: -0.094 | inactive: 0.147 | inactive: -0.159 | inactive: 0.136 | inactive: -0.062 | inactive: -0.005 | inactive: -0.192 | inactive: 0.118 | inactive: -0.154 | inactive: -0.184 | – | inactive: 0.209
SLC9A3R1 (UniProt O14745) | inactive: 0.012 | inactive: 0.028 | inactive: 0.007 | inactive: -0.041 | inactive: 0.04 | inactive: 0.009 | inactive: -0.017 | inactive: -0.053 | inactive: -0.048 | inactive: 0.041 | inactive: -0.041 | inactive: -0.017 | inactive: 0.027 | inactive: 0.017 | inactive: 0.014 | inactive: -0.001 | inactive: 0.024 | inactive: 0.01 | inactive: -0.021 | inactive: 0.024
SMG9 (UniProt Q9H0W8) | inactive: 0.044 | inactive: -0.128 | inactive: -0.078 | inactive: 0.201 | inactive: 0.138 | inactive: -0.071 | inactive: -0.077 | inactive: -0.015 | inactive: 0.058 | – | inactive: 0.011 | inactive: -0.078 | – | – | inactive: -0.164 | – | inactive: -0.022 | – | inactive: 0.25 | inactive: 0.005

2 entries from above, tab-delimited:
Target	log2 fold change [1]	log2 fold change [2]	log2 fold change [3]	log2 fold change [4]	log2 fold change [5]	log2 fold change [6]	log2 fold change [7]	log2 fold change [8]	log2 fold change [9]	log2 fold change [10]	log2 fold change [11]	log2 fold change [12]	log2 fold change [13]	log2 fold change [14]	log2 fold change [15]	log2 fold change [16]	log2 fold change [17]	log2 fold change [18]	log2 fold change [19]	log2 fold change [20]
SNAP29 (UniProt O95721)	inactive: -0.046	inactive: -0.024	inactive: -0.012	inactive: 0	inactive: 0.022	inactive: -0.008	inactive: -0.022	inactive: -0.042	inactive: -0.011	inactive: -0.024	inactive: -0.053	inactive: -0.059	inactive: 0.014	inactive: 0.002	inactive: 0.01	inactive: -0.015	inactive: 0.002	inactive: -0.007	inactive: 0.022	inactive: 0.019
SNX11 (UniProt Q9Y5W9)	inactive: -0.062	active: -0.76	inactive: -0.021	inactive: 0.012	active: -0.486	inactive: -0.378	–	inactive: 0.14	inactive: -0.017	active: -0.536	inactive: -0.259	inactive: 0.081	inactive: -0.033	inactive: -0.108	inactive: -0.022	active: -0.44	inactive: 0.077	inactive: 0.002	inactive: 0.178	inactive: -0.015
